Measurements reported in PubChem BioAssay AID1259424 (University of Nebraska Medical Center, 2018)
Aim: 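Rank knockdowns across the genome by resemblance to the KSR1 depletion profile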 (primary screen). Cells: human HCT116 colon cancer cells. Knock-down reagent: siRNA pool against human genes, 50 nM. Measured: 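Six signature mRNAs by branched-DNA multiplex assay, scaled to two housekeeping genes and non-targeting median, log2; matched to mean KSR1 knockdown profile by Pearson correlation and euclidean distance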. Scale: mean correlation with KSR1 profile: higher = expression change more like KSR1 knockdown; mean distance from KSR1 profile: higher = expression change less like KSR1 knockdown.
This is a random part of about 14,000 deposited reagents. 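Higher correlation or smaller distance means closer resemblance to KSR1 loss; control wells, including KSR1 knockdowns, recur on many plates.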 Not all columns of the deposit are shown. The record does not give: the time to read-out.

For SLC25A10 (GeneID 1468), the entry reads mean correlation with KSR1 profile 0.281; mean distance from KSR1 profile 1.67. FAM117A (GeneID 81558) gave mean correlation with KSR1 profile 0.341; mean distance from KSR1 profile 2.27. Against HOXD10 (GeneID 3236) the deposit lists mean correlation with KSR1 profile 0.532; mean distance from KSR1 profile 1.41. DSCAML1 (GeneID 57453) scored mean correlation with KSR1 profile -0.606; mean distance from KSR1 profile 3.38. Depletion of MXRA5 (GeneID 25878) came out at: mean correlation with KSR1 profile 0.301; mean distance from KSR1 profile 1.53. After knock-down of KIAA0930 (GeneID 23313) the results were mean correlation with KSR1 profile 0.0499; mean distance from KSR1 profile 1.54.

Silencing of PRDM13 (GeneID 59336) resulted in: mean correlation with KSR1 profile 0.8; mean distance from KSR1 profile 1.33. With knock-down of ESYT3 (GeneID 83850), the record shows mean correlation with KSR1 profile 0.777; mean distance from KSR1 profile 1.8. After knock-down of USP30 (GeneID 84749), the screen gave mean correlation with KSR1 profile 0.543; mean distance from KSR1 profile 0.758. UTP15 (GeneID 84135) scored mean correlation with KSR1 profile 0.129; mean distance from KSR1 profile 2.55. Against ODF2L (GeneID 57489), the values are mean correlation with KSR1 profile 0.0246; mean distance from KSR1 profile 1.33. KRIT1 (GeneID 889) showed mean correlation with KSR1 profile 0.0832; mean distance from KSR1 profile 1.64.

Against POLR3K (GeneID 51728) the deposit lists mean correlation with KSR1 profile 0.298; mean distance from KSR1 profile 2.26. Silencing of AP4S1 (GeneID 11154) resulted in: mean correlation with KSR1 profile -0.583; mean distance from KSR1 profile 2.84. HMCES (GeneID 56941) gave mean correlation with KSR1 profile 0.262; mean distance from KSR1 profile 2.71. PHKB (GeneID 5257) gave mean correlation with KSR1 profile -0.0648; mean distance from KSR1 profile 1.82. Depletion of DLD (GeneID 1738) resulted in: mean correlation with KSR1 profile -0.049; mean distance from KSR1 profile 1.49. Depletion of COMMD8 (GeneID 54951) gave: mean correlation with KSR1 profile -0.569; mean distance from KSR1 profile 7.42.

For PPP1R12A (GeneID 4659) the deposit lists mean correlation with KSR1 profile -0.106; mean distance from KSR1 profile 2.36. DCDC2 (GeneID 51473) showed mean correlation with KSR1 profile -0.112; mean distance from KSR1 profile 1.43. CD72 (GeneID 971) gave mean correlation with KSR1 profile -0.041; mean distance from KSR1 profile 1.46. CXXC1 (GeneID 30827) scored mean correlation with KSR1 profile 0.171; mean distance from KSR1 profile 1.44. After knock-down of HCN4 (GeneID 10021), the screen gave mean correlation with KSR1 profile -0.207; mean distance from KSR1 profile 3.24. LBP (GeneID 3929) showed mean correlation with KSR1 profile 0.489; mean distance from KSR1 profile 2.87.

Copied from the listing (2 entries):
KRIT1 (GeneID 889) → mean correlation with KSR1 profile = 0.0832; mean distance from KSR1 profile = 1.64
POLR3K (GeneID 51728) → mean correlation with KSR1 profile = 0.298; mean distance from KSR1 profile = 2.26

Further reagents:
With knock-down of CABLES2 (GeneID 81928) the results were mean correlation with KSR1 profile 0.507; mean distance from KSR1 profile 2.67. With knock-down of NOD1 (GeneID 10392), the record shows mean correlation with KSR1 profile 0.0904; mean distance from KSR1 profile 1.29. Depletion of PCDHGB3 (GeneID 56102) gave: mean correlation with KSR1 profile -0.844; mean distance from KSR1 profile 3.04. Against ELP6 (GeneID 54859) the deposit lists mean correlation with KSR1 profile 0.367; mean distance from KSR1 profile 1.55. WDR5B (GeneID 54554) showed mean correlation with KSR1 profile 0.948; mean distance from KSR1 profile 1.1. With knock-down of CNP (GeneID 1267), the record shows mean correlation with KSR1 profile -0.282; mean distance from KSR1 profile 4.19.

ARFIP1 (GeneID 27236) gave mean correlation with KSR1 profile 0.0806; mean distance from KSR1 profile 1.88. CDON (GeneID 50937) scored mean correlation with KSR1 profile -0.198; mean distance from KSR1 profile 3.33. BRAP (GeneID 8315) scored mean correlation with KSR1 profile -0.366; mean distance from KSR1 profile 1.3. After knock-down of A1CF (GeneID 29974), the screen gave mean correlation with KSR1 profile 0.432; mean distance from KSR1 profile 1.05. Against HUNK (GeneID 30811) the deposit lists mean correlation with KSR1 profile 0.58; mean distance from KSR1 profile 1.97. PPRC1 (GeneID 23082) showed mean correlation with KSR1 profile -0.63; mean distance from KSR1 profile 3.81.
